Patent US20250361311A1
These are yes or no findings as the source states them, for the method shown. Some entries that bind do so weakly or less than the wild type.

Target: T1, soluble recombinant human TL1A trimer (human) (UniProt O95150)
T1 sequence (looked up): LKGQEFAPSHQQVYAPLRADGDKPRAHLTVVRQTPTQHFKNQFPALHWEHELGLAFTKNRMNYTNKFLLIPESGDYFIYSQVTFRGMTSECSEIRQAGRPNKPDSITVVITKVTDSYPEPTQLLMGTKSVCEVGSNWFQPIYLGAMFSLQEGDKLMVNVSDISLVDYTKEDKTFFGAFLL
Test: BLI, Fab at 200 nM on immobilized TL1A trimer, 25 C

- binding: binds
B1: 70416_041[TL1A]H1L1 Fab (Fab, V domains shown)
VH: QVQLVQSGAEVKKPGASVKVSCKVSGFSVTSYNVHWVRQAPGQGLEWMGVMWSGGNTDYNSKFQGRVTMTRDTSTNTVYMELSSLRSEDTAVYYCARAGRYYHDSNYYWDFPYWGQGTLVTVSS
VL: DIQMTQSPSSVSASVGDRVTITCRASEDIYSGLAWYQQKPGKSPKLLIYGASSLQDGVPSRFSGSGSGTDYTLTISSLQPEDFATYFCQEGLKSPYTFGAGTKLEIK
